Laboratory results published in PMC12466843.
No constants are given. Whether binding was seen depends on the method and setting. In cells and extracts the contact can be indirect. A yes stands for co-enrichment or nearness to the bait. Other partners may have been found.

By UniProt entry, the sequences of proteins in these tests, tags left out.
UniProt Q96P20: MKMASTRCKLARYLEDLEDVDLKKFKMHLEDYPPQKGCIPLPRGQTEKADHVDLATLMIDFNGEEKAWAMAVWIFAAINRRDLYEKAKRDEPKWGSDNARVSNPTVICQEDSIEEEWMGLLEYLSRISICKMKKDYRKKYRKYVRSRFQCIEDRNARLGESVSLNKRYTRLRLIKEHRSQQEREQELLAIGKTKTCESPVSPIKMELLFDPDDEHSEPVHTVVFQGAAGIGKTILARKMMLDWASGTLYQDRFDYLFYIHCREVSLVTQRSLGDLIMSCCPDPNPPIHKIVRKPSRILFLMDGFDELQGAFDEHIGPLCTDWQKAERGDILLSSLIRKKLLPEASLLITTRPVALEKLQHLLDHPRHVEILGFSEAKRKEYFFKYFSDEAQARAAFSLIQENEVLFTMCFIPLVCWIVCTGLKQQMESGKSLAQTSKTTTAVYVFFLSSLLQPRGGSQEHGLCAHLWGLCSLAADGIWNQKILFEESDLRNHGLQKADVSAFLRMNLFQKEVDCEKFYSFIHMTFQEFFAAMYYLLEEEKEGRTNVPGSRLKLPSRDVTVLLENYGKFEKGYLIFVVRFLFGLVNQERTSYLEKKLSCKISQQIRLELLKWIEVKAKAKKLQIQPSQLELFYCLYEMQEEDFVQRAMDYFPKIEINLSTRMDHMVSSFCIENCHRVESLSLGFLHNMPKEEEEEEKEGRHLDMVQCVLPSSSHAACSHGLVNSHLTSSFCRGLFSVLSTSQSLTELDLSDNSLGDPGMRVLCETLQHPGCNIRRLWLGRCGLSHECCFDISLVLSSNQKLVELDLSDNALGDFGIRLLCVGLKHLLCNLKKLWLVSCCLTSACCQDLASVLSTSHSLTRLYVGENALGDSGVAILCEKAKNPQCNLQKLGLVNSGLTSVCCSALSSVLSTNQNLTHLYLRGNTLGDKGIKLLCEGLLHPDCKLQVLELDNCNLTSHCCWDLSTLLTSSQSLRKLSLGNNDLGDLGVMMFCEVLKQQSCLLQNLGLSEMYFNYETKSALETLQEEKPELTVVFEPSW
UniProt Q93009: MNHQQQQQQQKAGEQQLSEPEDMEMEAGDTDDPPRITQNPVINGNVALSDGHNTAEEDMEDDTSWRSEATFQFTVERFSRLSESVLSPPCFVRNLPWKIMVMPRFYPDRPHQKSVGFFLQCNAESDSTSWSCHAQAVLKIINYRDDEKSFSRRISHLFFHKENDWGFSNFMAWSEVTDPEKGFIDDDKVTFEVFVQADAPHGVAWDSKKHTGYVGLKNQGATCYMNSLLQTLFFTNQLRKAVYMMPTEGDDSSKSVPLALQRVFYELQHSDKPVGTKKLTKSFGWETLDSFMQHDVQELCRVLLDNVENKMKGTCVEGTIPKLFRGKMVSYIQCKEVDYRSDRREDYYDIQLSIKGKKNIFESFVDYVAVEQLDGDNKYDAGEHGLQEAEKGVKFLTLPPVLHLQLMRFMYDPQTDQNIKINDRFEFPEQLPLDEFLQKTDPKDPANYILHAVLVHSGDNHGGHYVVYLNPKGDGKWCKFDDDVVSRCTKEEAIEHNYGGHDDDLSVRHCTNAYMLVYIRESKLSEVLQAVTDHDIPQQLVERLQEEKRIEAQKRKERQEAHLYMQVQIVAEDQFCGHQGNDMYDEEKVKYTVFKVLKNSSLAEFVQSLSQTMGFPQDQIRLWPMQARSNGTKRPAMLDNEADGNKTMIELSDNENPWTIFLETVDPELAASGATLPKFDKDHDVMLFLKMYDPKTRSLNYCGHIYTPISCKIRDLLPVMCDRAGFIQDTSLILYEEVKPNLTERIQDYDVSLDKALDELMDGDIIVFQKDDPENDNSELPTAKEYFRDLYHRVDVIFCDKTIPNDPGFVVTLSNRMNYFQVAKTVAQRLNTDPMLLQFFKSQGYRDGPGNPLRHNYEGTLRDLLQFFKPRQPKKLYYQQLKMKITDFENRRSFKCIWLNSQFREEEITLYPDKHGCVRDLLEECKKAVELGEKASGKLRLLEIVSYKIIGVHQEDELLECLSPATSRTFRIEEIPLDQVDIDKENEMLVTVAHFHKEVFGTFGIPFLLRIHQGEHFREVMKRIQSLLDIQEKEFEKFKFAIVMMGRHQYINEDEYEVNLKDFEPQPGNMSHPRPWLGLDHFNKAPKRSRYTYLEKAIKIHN
UniProt O15372: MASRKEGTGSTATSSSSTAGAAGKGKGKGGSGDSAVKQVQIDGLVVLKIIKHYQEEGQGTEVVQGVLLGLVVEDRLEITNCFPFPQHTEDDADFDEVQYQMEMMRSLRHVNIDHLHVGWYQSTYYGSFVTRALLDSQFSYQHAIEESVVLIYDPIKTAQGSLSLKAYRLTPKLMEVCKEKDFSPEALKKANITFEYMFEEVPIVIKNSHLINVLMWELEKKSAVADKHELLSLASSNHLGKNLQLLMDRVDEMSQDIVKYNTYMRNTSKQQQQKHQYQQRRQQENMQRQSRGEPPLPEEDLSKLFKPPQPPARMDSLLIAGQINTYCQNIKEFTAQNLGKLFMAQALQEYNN
UniProt P46736: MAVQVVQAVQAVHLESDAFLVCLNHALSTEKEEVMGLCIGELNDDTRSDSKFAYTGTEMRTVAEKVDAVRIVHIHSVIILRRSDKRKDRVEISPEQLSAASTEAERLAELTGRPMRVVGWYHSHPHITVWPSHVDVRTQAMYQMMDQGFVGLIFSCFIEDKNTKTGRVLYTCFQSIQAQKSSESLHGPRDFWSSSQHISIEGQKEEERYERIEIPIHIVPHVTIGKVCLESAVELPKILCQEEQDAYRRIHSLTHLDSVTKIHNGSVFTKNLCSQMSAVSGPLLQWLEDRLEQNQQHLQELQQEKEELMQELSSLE
UniProt Q93008: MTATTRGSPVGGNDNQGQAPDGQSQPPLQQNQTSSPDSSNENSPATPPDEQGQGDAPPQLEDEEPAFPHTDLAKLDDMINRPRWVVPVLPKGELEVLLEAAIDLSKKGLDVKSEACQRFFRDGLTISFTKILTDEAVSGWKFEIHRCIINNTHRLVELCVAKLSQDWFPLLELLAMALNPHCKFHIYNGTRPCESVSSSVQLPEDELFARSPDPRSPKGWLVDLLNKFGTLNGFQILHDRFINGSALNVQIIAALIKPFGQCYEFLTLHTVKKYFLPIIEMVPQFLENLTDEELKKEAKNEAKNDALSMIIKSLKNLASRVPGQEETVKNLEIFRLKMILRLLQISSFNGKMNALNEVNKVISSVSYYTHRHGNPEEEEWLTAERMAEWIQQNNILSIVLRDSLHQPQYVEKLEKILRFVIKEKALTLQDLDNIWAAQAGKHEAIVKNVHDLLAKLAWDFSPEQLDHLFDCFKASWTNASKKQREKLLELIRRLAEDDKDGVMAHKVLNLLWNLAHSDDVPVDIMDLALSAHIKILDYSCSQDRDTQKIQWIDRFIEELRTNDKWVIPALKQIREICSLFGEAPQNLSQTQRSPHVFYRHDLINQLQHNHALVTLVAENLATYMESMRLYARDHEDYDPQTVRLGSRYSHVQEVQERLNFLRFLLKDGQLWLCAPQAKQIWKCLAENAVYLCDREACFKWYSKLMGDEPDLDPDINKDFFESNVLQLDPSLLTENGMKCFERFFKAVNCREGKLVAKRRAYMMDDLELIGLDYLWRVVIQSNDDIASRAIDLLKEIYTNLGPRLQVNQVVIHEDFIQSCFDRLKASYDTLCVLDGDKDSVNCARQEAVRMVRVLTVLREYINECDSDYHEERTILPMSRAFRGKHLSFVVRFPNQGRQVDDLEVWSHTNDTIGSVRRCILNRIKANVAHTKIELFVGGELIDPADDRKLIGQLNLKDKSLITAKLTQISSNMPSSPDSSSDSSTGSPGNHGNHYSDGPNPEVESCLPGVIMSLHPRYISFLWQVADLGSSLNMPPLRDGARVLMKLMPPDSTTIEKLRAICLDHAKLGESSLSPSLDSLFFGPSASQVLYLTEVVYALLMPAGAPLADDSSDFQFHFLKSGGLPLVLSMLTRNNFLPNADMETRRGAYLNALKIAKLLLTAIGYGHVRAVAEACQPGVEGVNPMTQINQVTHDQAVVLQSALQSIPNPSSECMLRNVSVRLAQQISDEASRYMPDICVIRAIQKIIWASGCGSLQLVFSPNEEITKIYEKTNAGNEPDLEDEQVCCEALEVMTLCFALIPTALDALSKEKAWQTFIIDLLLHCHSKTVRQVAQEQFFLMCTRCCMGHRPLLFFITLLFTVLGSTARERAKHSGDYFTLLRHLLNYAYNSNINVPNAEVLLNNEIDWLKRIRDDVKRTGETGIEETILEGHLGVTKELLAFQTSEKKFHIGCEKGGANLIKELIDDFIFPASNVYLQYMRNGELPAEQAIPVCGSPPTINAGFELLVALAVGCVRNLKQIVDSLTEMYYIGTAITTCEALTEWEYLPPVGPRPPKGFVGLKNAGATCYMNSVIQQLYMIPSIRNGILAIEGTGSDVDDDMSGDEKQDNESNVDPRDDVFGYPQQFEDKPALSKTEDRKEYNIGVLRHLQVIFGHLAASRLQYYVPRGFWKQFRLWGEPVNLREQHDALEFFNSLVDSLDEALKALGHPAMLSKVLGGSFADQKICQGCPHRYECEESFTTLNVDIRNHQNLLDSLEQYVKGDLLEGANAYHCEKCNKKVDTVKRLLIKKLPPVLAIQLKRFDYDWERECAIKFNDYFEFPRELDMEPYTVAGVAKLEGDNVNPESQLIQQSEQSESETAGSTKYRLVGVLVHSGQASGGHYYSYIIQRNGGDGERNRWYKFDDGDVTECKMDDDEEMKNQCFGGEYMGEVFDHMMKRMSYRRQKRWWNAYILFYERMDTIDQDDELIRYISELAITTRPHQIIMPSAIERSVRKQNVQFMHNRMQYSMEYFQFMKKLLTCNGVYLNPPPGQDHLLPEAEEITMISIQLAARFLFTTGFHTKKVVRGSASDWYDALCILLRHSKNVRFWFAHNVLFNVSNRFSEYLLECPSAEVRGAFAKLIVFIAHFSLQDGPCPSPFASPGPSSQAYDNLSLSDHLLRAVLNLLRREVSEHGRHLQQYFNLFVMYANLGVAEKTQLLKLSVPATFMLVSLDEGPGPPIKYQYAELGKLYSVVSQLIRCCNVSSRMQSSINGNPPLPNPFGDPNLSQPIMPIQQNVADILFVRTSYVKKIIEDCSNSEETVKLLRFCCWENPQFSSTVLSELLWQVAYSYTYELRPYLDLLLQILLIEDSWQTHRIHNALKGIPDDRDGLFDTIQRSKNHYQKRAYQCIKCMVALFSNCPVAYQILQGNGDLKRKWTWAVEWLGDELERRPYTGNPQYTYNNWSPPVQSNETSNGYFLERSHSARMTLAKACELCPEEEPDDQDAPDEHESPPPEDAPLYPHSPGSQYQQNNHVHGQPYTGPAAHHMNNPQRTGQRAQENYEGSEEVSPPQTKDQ

Target: Flag-tagged human NLRP3 (human) (UniProt Q96P20)
Test: affinity purification with mass spectrometry; lysates of THP-1 cells expressing Flag-tagged NLRP3 incubated with anti-Flag M2 beads for 6 hours at 4°C; IP lysis buffer (150 mM NaCl, 100 mM tris-HCl pH 8.0, 0.5% Triton X-100, 2 mM EDTA); LTQ-Orbitrap Velos

Row | Molecule | binding
1 | USP7, endogenous in THP-1 cells (from UniProt Q93009 1-1102) (enzyme) | binds
2 | EIF3H (eukaryotic translation initiation factor 3 subunit H), endogenous in THP-1 cells (from UniProt O15372 1-352) | binds
3 | BRCC3 (BRCA1/BRCA2-containing complex subunit 3), endogenous in THP-1 cells (from UniProt P46736 1-316) (enzyme) | binds

Results, then the molecule that gave them:

Row | binding | Molecule
4 | binds | USP9X, endogenous in THP-1 cells (from UniProt Q93008 1-2554) (enzyme)
5 | binds | USP13 (ubiquitin-specific protease 13), endogenous in THP-1 cells (enzyme, UniProt Q92995 1-863) MQRRGALFGMPGGSGGRKMAAGDIGELLVPHMPTIRVPRSGDRVYKNECAFSYDSPNSEGGLYVCMNTFLAFGREHVERHFRKTGQSVYMHLKRHVREKVRGASGGALPKRRNSKIFLDLDTDDDLNSDDYEYEDEAKLVIFPDHYEIALPNIEELPALVTIACDAVLSSKSPYRKQDPDTWENELPVSKYANNLTQLDNGVRIPPSGWKCARCDLRENLWLNLTDGSVLCGKWFFDSSGGNGHALEHYRDMGYPLAVKLGTITPDGADVYSFQEEEPVLDPHLAKHLAHFGIDMLHMHGTENGLQDNDIKLRVSEWEVIQESGTKLKPMYGPGYTGLKNLGNSCYLSSVMQAIFSIPEFQRAYVGNLPRIFDYSPLDPTQDFNTQMTKLGHGLLSGQYSKPPVKSELIEQVMKEEHKPQQNGISPRMFKAFVSKSHPEFSSNRQQDAQEFFLHLVNLVERNRIGSENPSDVFRFLVEERIQCCQTRKVRYTERVDYLMQLPVAMEAATNKDELIAYELTRREAEANRRPLPELVRAKIPFSACLQAFSEPENVDDFWSSALQAKSAGVKTSRFASFPEYLVVQIKKFTFGLDWVPKKFDVSIDMPDLLDINHLRARGLQPGEEELPDISPPIVIPDDSKDRLMNQLIDPSDIDESSVMQLAEMGFPLEACRKAVYFTGNMGAEVAFNWIIVHMEEPDFAEPLTMPGYGGAASAGASVFGASGLDNQPPEEIVAIITSMGFQRNQAIQALRATNNNLERALDWIFSHPEFEEDSDFVIEMENNANANIISEAKPEGPRVKDGSGTYELFAFISHMGTSTMSGHYICHIKKEGRWVIYNDHKVCASERPPKDLGYMYFYRRIPS
